Measured values taken from PubChem BioAssay AID2685 (National Center for Advancing Translational Sciences (NCATS), 2010).
The campaign covered roughly 320,000 compounds. About 2,100 (0.66%) were called active. This list was built around the results that the source calls inconclusive (neither active nor inactive); the mix of calls is not that of the screen. Calls come from the whole dose curve; as a rule, active = well fitted inhibition curve with a large enough effect in the signal ratio, with a control signal flat (not every such curve was filed as active); inconclusive = small, poorly fitted or top-dose-only effect, or effect the other way, or a change in a side signal; inactive = flat fitted curve, though single readings scatter; the % refers to the signal ratio. A potency beside an inconclusive call is a rough fit, not a confirmed value.

experiment: qHTS Assay for Lipid Storage Modulators in Drosophila S3 Cells; conditions: BODIPY lipid droplet fluorescence, 18-24 h, cells fed with added oleic acid; lipid storage change, negative = inhibition: at 46.1 µM (top of the series) unless noted
Method in brief: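 Laser-scanning cytometry quantifies lipid droplet accumulation (500–530 nm total intensity; droplet/cell object ratio) in oleic acid-fed (400 uM added) Drosophila S3 cells treated with a concentration series. 20 uM Triacsin C defined 100% inhibition.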
% is set by controls: 0 for no effect and ±100 for the full control effect; potency is the fitted concentration of half-maximal effect.

Q: Which lipid storage change, negative = inhibition does the source give for `O=C(CCNS(=O)(=O)c1ccc(Cl)cc1)N1CCCCCC1` here?
A: inconclusive: -8.48%

Q: With `Cc1ccc(SCCN2CCN(C)CC2)cc1` as the compound, how does the lipid storage change, negative = inhibition read?
A: inconclusive: 32.1%

Q: With `Cc1noc(C)c1CSc1nnc(-c2c[nH]c3ccccc23)n1-c1ccc(Cl)cc1` as the compound, how does the lipid storage change, negative = inhibition read?
A: inconclusive: -5.14%

Q: With `Cc1cc(C(=O)OCC(=O)NC(C)C)c(C)o1` as the compound, how does the Potency read?
A: inconclusive: 0.731 µM [falling, full curve, poor fit]

Q: For `Clc1ccc(-c2csc(Nc3cccnc3)n2)cc1`, which lipid storage change, negative = inhibition is on record?
A: inconclusive: 23%

Q: For `COc1ccc2[nH]c3c(N4CCN(Cc5ccc6c(c5)OCO6)CC4)ncnc3c2c1`, which lipid storage change, negative = inhibition is on record?
A: inconclusive: -22.3%

Q: With `CN(C)c1ccc(CN(C(=O)c2ccco2)C2CCS(=O)(=O)C2)cc1` (stereo unspecified) as the compound, how does the lipid storage change, negative = inhibition read?
A: inconclusive: -4.42%

Q: For `O=C(Nc1ccc([N+](=O)[O-])cc1)/C(=C/c1cccc([N+](=O)[O-])c1)NC(=O)C1CCCCC1`, which Potency is on record?
A: inconclusive: 18.4 µM [falling, partial curve]

Q: Which lipid storage change, negative = inhibition does the source give for `Cc1cc(Cl)cc(C)c1OCCn1ccnc1` here?
A: inconclusive: 21.7%

Q: Which lipid storage change, negative = inhibition does the source give for `Cc1ccc(CCNC(=O)CN2C(=O)COc3ccccc32)cc1` here?
A: inconclusive: 0.14%

Q: For `O=C(CSc1n[nH]c(-c2ccccn2)n1)Nc1ccc(F)cc1`, which Potency is on record?
A: inconclusive: 8.2 µM [falling, single point]

Q: With `CC1CN(c2nc3c(c(=O)n(C)c(=O)n3C)n2Cc2c(F)cccc2Cl)CC(C)O1` (stereo unspecified) as the compound, how does the lipid storage change, negative = inhibition read?
A: inconclusive: 30.2%

Q: For `COc1ccc(NC2=NC3(CCCCC3)N=C(N)N2)cc1`, which “lipid storage change, negative = inhibition” value is on record?
A: inactive: -9.8%

Q: With `COC(=O)c1ccccc1S(=O)c1snnc1C` (stereo unspecified) as the compound, how does the Potency read?
A: inconclusive: 6.51 µM [cytotoxic, single point]

Q: With `COc1cccc(C(=O)CN2C(=O)C(C)(C)Oc3ccc(C(=O)N4CCCCCC4)cc32)c1` as the compound, how does the lipid storage change, negative = inhibition read?
A: inconclusive: 26.2%

Q: With `O=C(CN1CCN(c2ccccc2)CC1)NC(=O)NCc1ccco1` as the compound, how does the lipid storage change, negative = inhibition read?
A: inconclusive: 10.9%

Q: Which Potency does the source give for `O=C(Nc1ccccc1N1CCOCC1)C1=NN(c2ccccc2)C(=O)CC1` here?
A: inconclusive: 0.517 µM [activator, full curve, poor fit]

Q: Which Potency does the source give for `COc1cc(-c2nc(-c3ccc4c(c3)-c3ccccc3S4(=O)=O)c(-c3ccccc3)[nH]2)cc(OC)c1O` here?
A: inconclusive: 6.51 µM [activator, single point]

Q: For `COc1cccc(NC(=O)c2ccc(NC(C)=O)cc2)c1`, which lipid storage change, negative = inhibition is on record?
A: inconclusive: 77.3%

Q: Which Potency does the source give for `Cc1ccc(CSC2=Nc3sccc3C3=NC(=O)CN23)cc1` here?
A: inconclusive: 2.91 µM [falling, full curve, poor fit]

Q: Which lipid storage change, negative = inhibition does the source give for `O=C(COC(=O)c1ccc([N+](=O)[O-])s1)NCCc1ccccc1` here?
A: inconclusive: 13.5%

Q: For `NS(=O)(=O)c1ccc(NC(=O)COC(=O)COc2ccccc2)cc1`, which lipid storage change, negative = inhibition is on record?
A: inconclusive: -20.8%

Q: For `O=C(c1ccc(OC2CCN(CCc3ccccc3)CC2)cc1)N1CCCCC1CCCO` (stereo unspecified), which lipid storage change, negative = inhibition is on record?
A: inconclusive: 21%

Q: With `CCCn1c(C)cc(C(=O)COc2ccc(-c3nnco3)cc2)c1C` as the compound, how does the Potency read?
A: inconclusive: 32.6 µM [falling, single point]

Q: For `CC(C)(C)C(=O)Nc1ccc(C(=O)N/N=C/c2ccccc2OC(=O)c2ccc(Cl)cc2Cl)cc1`, which lipid storage change, negative = inhibition is on record?
A: inconclusive: -108%

Q: Which lipid storage change, negative = inhibition does the source give for `Cn1ccc(-c2ccccc2)c(C#N)c1=O` here?
A: inconclusive: 6.09%

Q: Which lipid storage change, negative = inhibition does the source give for `CCOC(=O)C1=C(COC(=O)COc2ccccc2C#N)NC(=O)NC1C` (stereo unspecified) here?
A: inconclusive: 9.6%

Q: For `COc1cccc(-c2c(C(=O)N/N=C/c3ccc(C)s3)nnn2-c2nonc2N)c1`, which lipid storage change, negative = inhibition is on record?
A: inconclusive: 42.3%

Q: Which Potency does the source give for `COc1cccc(-c2ccc(NC(=O)C3CCCN(Cc4cnn(C(C)C)c4)C3)cc2)c1` (stereo unspecified) here?
A: inconclusive: 0.58 µM [activator, single point]

Q: Which Potency does the source give for `COc1ccc(N(C(=O)CCl)C(C(=O)NCCc2ccccc2)c2cccs2)cc1Cl` (stereo unspecified) here?
A: inconclusive: 18.4 µM [falling, single point]

Q: For `COCCOC(=O)c1c(NC(=O)COC(=O)Cc2cccc(OC)c2)sc(C(N)=O)c1C`, which Potency is on record?
A: active: 6.51 µM

Q: Which Potency does the source give for `CCC(CC)COC(=O)C1=C(C)NC(=O)NC1c1cccc([N+](=O)[O-])c1` (stereo unspecified) here?
A: inconclusive: 29.1 µM [falling, single point]

Q: Which lipid storage change, negative = inhibition does the source give for `Cc1cc2c(s1)c1cnn(-c3ccccc3)c(=O)c1n2C` here?
A: inconclusive: 32.9%

Q: For `O=C1CCCN1c1ccc(CNS(=O)(=O)c2ccc(F)cc2)cc1`, which Potency is on record?
A: inconclusive: 5.8 µM [falling, full curve, poor fit]

Q: For `Fc1ccc(-c2cn(-c3ccccc3)c3[n+]2CCS3)cc1`, which lipid storage change, negative = inhibition is on record?
A: inconclusive: -18.7%

Q: With `CCNC(=O)CC1SC(=Nc2ccc(C)cc2)N(CC)C1=O` (stereo unspecified) as the compound, how does the Potency read?
A: inconclusive: 7.31 µM [activator, partial curve]

Q: For `CC1CCN(CC(=O)Nc2ccc(S(=O)(=O)N3CCCC(C)C3)cc2)CC1` (stereo unspecified), which lipid storage change, negative = inhibition is on record?
A: inconclusive: 14.9%

Q: With `CCCCN(CC)Cc1c(C)[nH]c2ccccc2c1=O` as the compound, how does the lipid storage change, negative = inhibition read?
A: inconclusive: 10%

Q: With `CCOC(=O)C1CCCN(Cc2cc(=O)oc3cc(C)ccc23)C1` (stereo unspecified) as the compound, how does the lipid storage change, negative = inhibition read?
A: inconclusive: -0.322%

Q: For `Fc1ccccc1N1CCN(Cc2nc(-c3ccc(Cl)cc3Cl)no2)CC1`, which Potency is on record?
A: inconclusive: 16.4 µM [activator, single point]

Q: With `O=C(NCCN1CCN(c2ccccc2)CC1)Nc1cccc(Br)c1` as the compound, how does the lipid storage change, negative = inhibition read?
A: inconclusive: 36.4%

Q: For `CCc1cc(C(=O)c2ccccc2)c(N)s1`, which lipid storage change, negative = inhibition is on record?
A: inconclusive: 74.7%

Q: With `CCCOc1ccc2c(C)c(CC(=O)OC)c(=O)oc2c1` as the compound, how does the lipid storage change, negative = inhibition read?
A: inconclusive: 19.6%

Q: With `CCOC(=O)CC(=O)CSc1nc(-c2ccccc2)cc(-c2ccccc2)c1C#N` as the compound, how does the Potency read?
A: inconclusive: 0.411 µM [activator, full curve]

Q: For `O=C(Oc1c(-c2ccccc2)oc2ccccc2c1=O)c1ccccc1`, which lipid storage change, negative = inhibition is on record?
A: inconclusive: -10.7%

Q: With `COc1cccc(-c2noc(C3CCCN(C(=O)c4ccc(F)cc4)C3)n2)c1` (stereo unspecified) as the compound, how does the lipid storage change, negative = inhibition read?
A: inconclusive: -5.57%

Q: Which lipid storage change, negative = inhibition does the source give for `CC1CC(CC(=O)Nc2nc(-c3ccccc3)cs2)C(=O)O1` (stereo unspecified) here?
A: inconclusive: 18.3%

Q: Which Potency does the source give for `Cc1cc(NCCCN2CCOCC2)n2nc(C)c(-c3ccccc3)c2n1` here?
A: inconclusive: 29.1 µM [rising, single point]

Q: With `CCn1nc(-c2ccccc2)c2nc3ccccc3nc21` as the compound, how does the Potency read?
A: inconclusive: 0.651 µM [activator, single point]

Q: Which lipid storage change, negative = inhibition does the source give for `O=C(Nc1ccc(Br)cc1)Nc1cnccn1` here?
A: inconclusive: -49.2%

Q: With `C#CC(C)(CC)NC(=O)c1cc(OC)c(OC)c(OC)c1` (stereo unspecified) as the compound, how does the Potency read?
A: inconclusive: 11.6 µM [activator, partial curve, poor fit]

Q: With `CC(C)c1ccc(N(C(=O)CNC(=O)c2ccco2)C(C(=O)NC2CCCC2)c2cccnc2)cc1` (stereo unspecified) as the compound, how does the lipid storage change, negative = inhibition read?
A: inconclusive: -16.7%

Q: Which “lipid storage change, negative = inhibition” value does the source give for `CCc1cc2c(-c3ccccc3)cc(=O)oc2cc1OCC(=O)NCC1CCC(C(=O)O)CC1` (stereo unspecified) here?
A: inactive: -3.52%

Q: With `CCN(C(=O)C12CC3CC(CC(C3)C1)C2)C1CCS(=O)(=O)C1` (stereo unspecified) as the compound, how does the lipid storage change, negative = inhibition read?
A: inconclusive: -0.0364%

Q: For `CCN(CC(=O)Nc1c(F)cccc1F)C(=O)Cc1ccccc1`, which Potency is on record?
A: inconclusive: 3.26 µM [activator, single point]

Q: For `CC(C)CN(CC(C)C)C(=O)CS(=O)(=O)Cc1ccccc1`, which lipid storage change, negative = inhibition is on record?
A: inconclusive: -31.2%

Q: Which Potency does the source give for `COc1ccc(C(=O)NCC(=O)N2CC=C(c3ccccc3)CC2)cc1OC` here?
A: inconclusive: 0.116 µM [activator, full curve, poor fit]

Q: With `NC1CCCCC1N=Cc1c(O)n(CCc2ccc(F)cc2)c(=O)[nH]c1=O` (stereo unspecified) as the compound, how does the lipid storage change, negative = inhibition read?
A: inconclusive: 15.2%

Q: For `COc1ccc(S(=O)(=O)N2CCCCC2)cc1NC(=O)C1COc2ccccc2O1` (stereo unspecified), which Potency is on record?
A: inconclusive: 3.26 µM [falling, partial curve]

Q: Which Potency does the source give for `C=CCn1cc(/C=C/c2cc[n+](C)cc2)c2ccccc21` here?
A: inconclusive: 16.4 µM [falling, single point]

Q: For `O=C(c1ccc2c(c1)N(Cc1ccccc1F)C(=O)c1ccccc1S2)N1CCOCC1`, which lipid storage change, negative = inhibition is on record?
A: inconclusive: 22.9%

Q: For `Cc1onc(-c2ccccc2)c1C(=O)NNC(=O)c1ccccc1Br`, which lipid storage change, negative = inhibition is on record?
A: inconclusive: 10.6%

Q: Which lipid storage change, negative = inhibition does the source give for `COc1ccc(OC)c(N2C(N)=C(C#N)C(c3ccc(OC)c(O)c3)C3=C2CC(C)(C)CC3=O)c1` (stereo unspecified) here?
A: inconclusive: 20%

Q: For `O=S(=O)(c1ccccc1)N1CCC(c2ccccc2)CC1`, which lipid storage change, negative = inhibition is on record?
A: inconclusive: 14.9%

Q: With `CC(C)CC(NC(=O)C1CCC(C)CC1)C(=O)NCCN1CCOCC1` (stereo unspecified) as the compound, how does the Potency read?
A: inconclusive: 29.1 µM [activator, single point]

Q: For `CCCN(CC1CC1)C(=O)COC(=O)c1oc2ccc(OCC)cc2c1C`, which Potency is on record?
A: active: 4.61 µM

Q: Which lipid storage change, negative = inhibition does the source give for `CC(=O)Oc1ccc(-c2csnn2)cc1` here?
A: inconclusive: 7.85%

Q: Which lipid storage change, negative = inhibition does the source give for `COc1cccc(CC2(CO)CCCN(Cc3ccc(OC)c(C)c3OC)C2)c1` (stereo unspecified) here?
A: inconclusive: -1.69%

Q: For `Cc1cc(C)cc(N(CCC(=O)O)S(=O)(=O)c2ccc3ccccc3c2)c1`, which lipid storage change, negative = inhibition is on record?
A: inconclusive: 11.7%

Q: Which Potency does the source give for `Fc1ccc(-c2nnn(Cc3nc4ccccc4s3)n2)cc1` here?
A: inconclusive: 18.4 µM [activator, partial curve]

Q: For `COc1cc(C(=O)NNc2nc3cc4c(cc3s2)OCO4)cc(OC)c1OC`, which Potency is on record?
A: inconclusive: 0.731 µM [activator, full curve]

Q: With `COc1cc(C(=O)N2CCCCC2)ccc1OCC(=O)Nc1ccc(F)cc1` as the compound, how does the lipid storage change, negative = inhibition read?
A: inconclusive: -37.3%

Q: Which Potency does the source give for `CC(=O)c1c(C)[nH]c(C(=O)OCCOc2ccccc2)c1C` here?
A: inconclusive: 4.61 µM [activator, full curve, poor fit]

Q: Which Potency does the source give for `CC1CCN(S(=O)(=O)c2ccc3ccccc3c2)CC1` here?
A: active: 3.26 µM

Q: For `Cc1cccc(NC(=O)Nc2ccc(F)cc2)n1`, which lipid storage change, negative = inhibition is on record?
A: inconclusive: 12%

Q: For `C=CCn1c(SCc2ccc(C(=O)Nc3nccs3)cc2)nnc1-c1ccc(C)c(Cl)c1`, which Potency is on record?
A: inconclusive: 20.6 µM [cytotoxic, single point]
